Test results from doi:10.1101/2020.06.25.171694.

T1: Heh1-L^GFP (S. cerevisiae) (UniProt Q03707)
T1 sequence: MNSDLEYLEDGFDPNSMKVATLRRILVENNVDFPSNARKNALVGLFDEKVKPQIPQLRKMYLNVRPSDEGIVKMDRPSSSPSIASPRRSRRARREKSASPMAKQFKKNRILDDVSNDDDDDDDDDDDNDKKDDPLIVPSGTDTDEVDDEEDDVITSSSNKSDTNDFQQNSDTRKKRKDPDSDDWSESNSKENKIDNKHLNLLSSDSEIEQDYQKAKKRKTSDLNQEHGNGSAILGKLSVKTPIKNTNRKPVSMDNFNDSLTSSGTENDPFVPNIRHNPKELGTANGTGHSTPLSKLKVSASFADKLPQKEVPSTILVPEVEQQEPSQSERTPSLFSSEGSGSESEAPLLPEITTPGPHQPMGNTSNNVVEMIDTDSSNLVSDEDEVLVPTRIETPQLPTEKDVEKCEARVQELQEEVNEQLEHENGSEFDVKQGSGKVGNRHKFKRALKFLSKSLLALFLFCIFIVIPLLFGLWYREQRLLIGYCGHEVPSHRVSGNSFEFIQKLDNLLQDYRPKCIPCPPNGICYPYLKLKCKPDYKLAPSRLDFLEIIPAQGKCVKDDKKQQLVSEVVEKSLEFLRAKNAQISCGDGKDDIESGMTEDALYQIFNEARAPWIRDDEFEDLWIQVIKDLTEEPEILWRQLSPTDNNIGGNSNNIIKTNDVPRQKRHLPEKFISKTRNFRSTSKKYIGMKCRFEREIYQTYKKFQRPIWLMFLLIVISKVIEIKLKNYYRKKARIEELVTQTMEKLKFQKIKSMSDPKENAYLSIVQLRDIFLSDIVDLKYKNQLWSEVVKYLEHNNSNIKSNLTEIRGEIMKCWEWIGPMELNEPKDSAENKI


Key:
[1] = target: T1, Heh1-L^GFP (S. cerevisiae); experiment: co-IP
[2] = target: Heh1-S^GFP (S. cerevisiae); experiment: co-IP

Molecule | binding [1] | binding [2]
full-length Chm7 (co-immunoprecipitation) (S. cerevisiae) | no binding | –
Heh1-S^6HA (S. cerevisiae) | binds | –
Heh1-L^6HA (protein, UniProt Q03707 1-834) MNSDLEYLEDGFDPNSMKVATLRRILVENNVDFPSNARKNALVGLFDEKVKPQIPQLRKMYLNVRPSDEGIVKMDRPSSSPSIASPRRSRRARREKSASPMAKQFKKNRILDDVSNDDDDDDDDDDDNDKKDDPLIVPSGTDTDEVDDEEDDVITSSSNKSDTNDFQQNSDTRKKRKDPDSDDWSESNSKENKIDNKHLNLLSSDSEIEQDYQKAKKRKTSDLNQEHGNGSAILGKLSVKTPIKNTNRKPVSMDNFNDSLTSSGTENDPFVPNIRHNPKELGTANGTGHSTPLSKLKVSASFADKLPQKEVPSTILVPEVEQQEPSQSERTPSLFSSEGSGSESEAPLLPEITTPGPHQPMGNTSNNVVEMIDTDSSNLVSDEDEVLVPTRIETPQLPTEKDVEKCEARVQELQEEVNEQLEHENGSEFDVKQGSGKVGNRHKFKRALKFLSKSLLALFLFCIFIVIPLLFGLWYREQRLLIGYCGHEVPSHRVSGNSFEFIQKLDNLLQDYRPKCIPCPPNGICYPYLKLKCKPDYKLAPSRLDFLEIIPAQGKCVKDDKKQQLVSEVVEKSLEFLRAKNAQISCGDGKDDIESGMTEDALYQIFNEARAPWIRDDEFEDLWIQVIKDLTEEPEILWRQLSPTDNNIGGNSNNIIKTNDVPRQKRHLPEKFISKTRNFRSTSKKYIGMKCRFEREIYQTYKKFQRPIWLMFLLIVISKVIEIKLKNYYRKKARIEELVTQTMEKLKFQKIKSMSDPKENAYLSIVQLRDIFLSDIVDLKYKNQLWSEVVKYLEHNNSNIKSNLTEIRGEIMKCWEWIGPMELNEPKDSAENKI | – | binds

Results are given in words; binding and its absence hold for the method and conditions named. Binding seen in cells or lysates may run through a third protein. A result given as binding can be weak or reduced; the word gives no strength. For part of these data: Where a sequence is shown, tags or fusion partners need not be part of it.
